Six compounds from PubChem BioAssay (NCATS) can be followed below.

This test is described as follows: qHTS for identification of novel therapeutic agents for treatment of microphthalmiaassociated transcription factor (MiT) renal cell carcinoma (RCC) (AID 1963991). As to conditions: CellTiter-Glo, 48 h; for z-score: stronger effect = lower value. In outline: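 Curves over 11 concentrations were fitted to CellTiter-Glo luminescence, scaled between empty wells (0%) and DMSO (100%) viability. Cells were UOK109, UOK124 and UOK145 TFE3-fusion RCC lines at 500/well, exposed 48 hours at 37 C.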
(qHTS replaces the single test concentration by a dilution series.)

Where [1] appears, read: TFE3-RCC UOK109 viability, measured here: UOK109 Z-AUC.
[2] abbreviates: TFE3-RCC viability, measured here: UOK124 Z-AUC.
Where [3] appears, read: TFE3-RCC viability, measured here: UOK124 cell viability.
[4] abbreviates: TFE3-RCC viability, measured here: UOK145 Z-AUC.
Setting [5] is: TFE3-RCC viability, measured here: UOK145 cell viability.

The other results are listed elsewhere or left out. The main result of the screen is listed elsewhere. These columns were measured beside it and carry no call. Compounds called inactive in the main read-out are mostly missing here. Potencies come from curve fits of mixed quality, noted in brackets.

`CC(O)(CS(=O)(=O)c1ccc(F)cc1)C(=O)Nc1ccc(C#N)c(C(F)(F)F)c1` (stereo not drawn) gave a z-score under setting [1] of -0.593, a z-score under setting [2] of 0.341 and a z-score under setting [4] of -0.655. Also, the AC50 reads like this: under setting [3], 37.2 µM [falling, single point]; under setting [5], 5.26 µM [falling, full curve].
Take `CC(C)CC(N(C)C)C1(c2ccc(Cl)cc2)CCC1` (stereo not drawn): the z-score under setting [1] is 0.59, the z-score under setting [2] came out at 0.804 and the z-score under setting [4] was 0.227. In addition, under setting [3], the AC50 is 18.7 µM [falling, single point].
In the case of `CC=C(C)C(=O)O[C@H]1C(C)=C2[C@@H]3OC(=O)[C@@](C)(O)[C@@]3(O)[C@@H](OC(=O)CCC)C[C@](C)(OC(C)=O)[C@@H]2[C@@H]1OC(=O)CCCCCCC`, the z-score is, setting by setting: under setting [1], -0.756; under setting [2], -2.02; under setting [4], -2.31. Moreover, the AC50 runs as follows: under setting [3], 4.69 µM [falling, partial curve]; under setting [5], 0.296 µM [falling, full curve].
For the compound `CN1CCN(c2ccc([N+](=O)[O-])c3no[n+]([O-])c23)CC1`, the z-score by setting is: under setting [1], 1.05; under setting [2], 0.0372; under setting [4], 0.322. The AC50 is 37.2 µM [falling, single point] under setting [3] and 33.2 µM [falling, single point] under setting [5].
As for `C[C@]12CC[C@@H]3c4ccc(OC(=O)N(CCCl)CCCl)cc4CC[C@H]3[C@@H]1CC[C@@H]2OP(=O)(O)O`, the z-score under setting [1] is 1.01, the z-score under setting [2] was found to be 1.05 and the z-score under setting [4] came out at 1.31. Moreover, the AC50 under setting [3] was 0.00209 µM [falling, full curve, poor fit].
On to `C=CCON=C(C[C@H]1O[C@@H]2O[C@]3(C)CC[C@@H]4[C@H](C)CC[C@@H]([C@H]1C)[C@@]24OO3)[C@H]1O[C@@H]2O[C@]3(C)CC[C@H]4[C@H](C)CC[C@@H]([C@@H]1C)[C@@]24OO3`, for which the z-score is -0.0143 under setting [1], -0.113 under setting [2] and -0.0446 under setting [4]. Besides, the AC50 under setting [3] was 0.469 µM [falling, full curve] and the AC50 under setting [5] was 1.66 µM [falling, full curve].

Usually AC50 stands for the concentration giving half of the maximal activity seen.
